Reference: the supplement of paper PMC10849652
The list shows a part of the results.

Protein sequences, listed by entry. Tags and fused reporters are not part of them. Lines headed by an entry give the natural chain unless they say otherwise; changes in a name come on top.
UniProt P13727: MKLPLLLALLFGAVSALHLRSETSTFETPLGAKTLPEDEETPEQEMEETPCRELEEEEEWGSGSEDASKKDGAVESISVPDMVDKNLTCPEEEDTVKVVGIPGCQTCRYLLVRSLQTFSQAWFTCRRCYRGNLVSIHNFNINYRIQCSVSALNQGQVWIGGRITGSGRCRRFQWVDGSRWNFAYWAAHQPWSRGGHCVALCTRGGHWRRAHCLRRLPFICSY
UniProt P78527, whole entry, looked up: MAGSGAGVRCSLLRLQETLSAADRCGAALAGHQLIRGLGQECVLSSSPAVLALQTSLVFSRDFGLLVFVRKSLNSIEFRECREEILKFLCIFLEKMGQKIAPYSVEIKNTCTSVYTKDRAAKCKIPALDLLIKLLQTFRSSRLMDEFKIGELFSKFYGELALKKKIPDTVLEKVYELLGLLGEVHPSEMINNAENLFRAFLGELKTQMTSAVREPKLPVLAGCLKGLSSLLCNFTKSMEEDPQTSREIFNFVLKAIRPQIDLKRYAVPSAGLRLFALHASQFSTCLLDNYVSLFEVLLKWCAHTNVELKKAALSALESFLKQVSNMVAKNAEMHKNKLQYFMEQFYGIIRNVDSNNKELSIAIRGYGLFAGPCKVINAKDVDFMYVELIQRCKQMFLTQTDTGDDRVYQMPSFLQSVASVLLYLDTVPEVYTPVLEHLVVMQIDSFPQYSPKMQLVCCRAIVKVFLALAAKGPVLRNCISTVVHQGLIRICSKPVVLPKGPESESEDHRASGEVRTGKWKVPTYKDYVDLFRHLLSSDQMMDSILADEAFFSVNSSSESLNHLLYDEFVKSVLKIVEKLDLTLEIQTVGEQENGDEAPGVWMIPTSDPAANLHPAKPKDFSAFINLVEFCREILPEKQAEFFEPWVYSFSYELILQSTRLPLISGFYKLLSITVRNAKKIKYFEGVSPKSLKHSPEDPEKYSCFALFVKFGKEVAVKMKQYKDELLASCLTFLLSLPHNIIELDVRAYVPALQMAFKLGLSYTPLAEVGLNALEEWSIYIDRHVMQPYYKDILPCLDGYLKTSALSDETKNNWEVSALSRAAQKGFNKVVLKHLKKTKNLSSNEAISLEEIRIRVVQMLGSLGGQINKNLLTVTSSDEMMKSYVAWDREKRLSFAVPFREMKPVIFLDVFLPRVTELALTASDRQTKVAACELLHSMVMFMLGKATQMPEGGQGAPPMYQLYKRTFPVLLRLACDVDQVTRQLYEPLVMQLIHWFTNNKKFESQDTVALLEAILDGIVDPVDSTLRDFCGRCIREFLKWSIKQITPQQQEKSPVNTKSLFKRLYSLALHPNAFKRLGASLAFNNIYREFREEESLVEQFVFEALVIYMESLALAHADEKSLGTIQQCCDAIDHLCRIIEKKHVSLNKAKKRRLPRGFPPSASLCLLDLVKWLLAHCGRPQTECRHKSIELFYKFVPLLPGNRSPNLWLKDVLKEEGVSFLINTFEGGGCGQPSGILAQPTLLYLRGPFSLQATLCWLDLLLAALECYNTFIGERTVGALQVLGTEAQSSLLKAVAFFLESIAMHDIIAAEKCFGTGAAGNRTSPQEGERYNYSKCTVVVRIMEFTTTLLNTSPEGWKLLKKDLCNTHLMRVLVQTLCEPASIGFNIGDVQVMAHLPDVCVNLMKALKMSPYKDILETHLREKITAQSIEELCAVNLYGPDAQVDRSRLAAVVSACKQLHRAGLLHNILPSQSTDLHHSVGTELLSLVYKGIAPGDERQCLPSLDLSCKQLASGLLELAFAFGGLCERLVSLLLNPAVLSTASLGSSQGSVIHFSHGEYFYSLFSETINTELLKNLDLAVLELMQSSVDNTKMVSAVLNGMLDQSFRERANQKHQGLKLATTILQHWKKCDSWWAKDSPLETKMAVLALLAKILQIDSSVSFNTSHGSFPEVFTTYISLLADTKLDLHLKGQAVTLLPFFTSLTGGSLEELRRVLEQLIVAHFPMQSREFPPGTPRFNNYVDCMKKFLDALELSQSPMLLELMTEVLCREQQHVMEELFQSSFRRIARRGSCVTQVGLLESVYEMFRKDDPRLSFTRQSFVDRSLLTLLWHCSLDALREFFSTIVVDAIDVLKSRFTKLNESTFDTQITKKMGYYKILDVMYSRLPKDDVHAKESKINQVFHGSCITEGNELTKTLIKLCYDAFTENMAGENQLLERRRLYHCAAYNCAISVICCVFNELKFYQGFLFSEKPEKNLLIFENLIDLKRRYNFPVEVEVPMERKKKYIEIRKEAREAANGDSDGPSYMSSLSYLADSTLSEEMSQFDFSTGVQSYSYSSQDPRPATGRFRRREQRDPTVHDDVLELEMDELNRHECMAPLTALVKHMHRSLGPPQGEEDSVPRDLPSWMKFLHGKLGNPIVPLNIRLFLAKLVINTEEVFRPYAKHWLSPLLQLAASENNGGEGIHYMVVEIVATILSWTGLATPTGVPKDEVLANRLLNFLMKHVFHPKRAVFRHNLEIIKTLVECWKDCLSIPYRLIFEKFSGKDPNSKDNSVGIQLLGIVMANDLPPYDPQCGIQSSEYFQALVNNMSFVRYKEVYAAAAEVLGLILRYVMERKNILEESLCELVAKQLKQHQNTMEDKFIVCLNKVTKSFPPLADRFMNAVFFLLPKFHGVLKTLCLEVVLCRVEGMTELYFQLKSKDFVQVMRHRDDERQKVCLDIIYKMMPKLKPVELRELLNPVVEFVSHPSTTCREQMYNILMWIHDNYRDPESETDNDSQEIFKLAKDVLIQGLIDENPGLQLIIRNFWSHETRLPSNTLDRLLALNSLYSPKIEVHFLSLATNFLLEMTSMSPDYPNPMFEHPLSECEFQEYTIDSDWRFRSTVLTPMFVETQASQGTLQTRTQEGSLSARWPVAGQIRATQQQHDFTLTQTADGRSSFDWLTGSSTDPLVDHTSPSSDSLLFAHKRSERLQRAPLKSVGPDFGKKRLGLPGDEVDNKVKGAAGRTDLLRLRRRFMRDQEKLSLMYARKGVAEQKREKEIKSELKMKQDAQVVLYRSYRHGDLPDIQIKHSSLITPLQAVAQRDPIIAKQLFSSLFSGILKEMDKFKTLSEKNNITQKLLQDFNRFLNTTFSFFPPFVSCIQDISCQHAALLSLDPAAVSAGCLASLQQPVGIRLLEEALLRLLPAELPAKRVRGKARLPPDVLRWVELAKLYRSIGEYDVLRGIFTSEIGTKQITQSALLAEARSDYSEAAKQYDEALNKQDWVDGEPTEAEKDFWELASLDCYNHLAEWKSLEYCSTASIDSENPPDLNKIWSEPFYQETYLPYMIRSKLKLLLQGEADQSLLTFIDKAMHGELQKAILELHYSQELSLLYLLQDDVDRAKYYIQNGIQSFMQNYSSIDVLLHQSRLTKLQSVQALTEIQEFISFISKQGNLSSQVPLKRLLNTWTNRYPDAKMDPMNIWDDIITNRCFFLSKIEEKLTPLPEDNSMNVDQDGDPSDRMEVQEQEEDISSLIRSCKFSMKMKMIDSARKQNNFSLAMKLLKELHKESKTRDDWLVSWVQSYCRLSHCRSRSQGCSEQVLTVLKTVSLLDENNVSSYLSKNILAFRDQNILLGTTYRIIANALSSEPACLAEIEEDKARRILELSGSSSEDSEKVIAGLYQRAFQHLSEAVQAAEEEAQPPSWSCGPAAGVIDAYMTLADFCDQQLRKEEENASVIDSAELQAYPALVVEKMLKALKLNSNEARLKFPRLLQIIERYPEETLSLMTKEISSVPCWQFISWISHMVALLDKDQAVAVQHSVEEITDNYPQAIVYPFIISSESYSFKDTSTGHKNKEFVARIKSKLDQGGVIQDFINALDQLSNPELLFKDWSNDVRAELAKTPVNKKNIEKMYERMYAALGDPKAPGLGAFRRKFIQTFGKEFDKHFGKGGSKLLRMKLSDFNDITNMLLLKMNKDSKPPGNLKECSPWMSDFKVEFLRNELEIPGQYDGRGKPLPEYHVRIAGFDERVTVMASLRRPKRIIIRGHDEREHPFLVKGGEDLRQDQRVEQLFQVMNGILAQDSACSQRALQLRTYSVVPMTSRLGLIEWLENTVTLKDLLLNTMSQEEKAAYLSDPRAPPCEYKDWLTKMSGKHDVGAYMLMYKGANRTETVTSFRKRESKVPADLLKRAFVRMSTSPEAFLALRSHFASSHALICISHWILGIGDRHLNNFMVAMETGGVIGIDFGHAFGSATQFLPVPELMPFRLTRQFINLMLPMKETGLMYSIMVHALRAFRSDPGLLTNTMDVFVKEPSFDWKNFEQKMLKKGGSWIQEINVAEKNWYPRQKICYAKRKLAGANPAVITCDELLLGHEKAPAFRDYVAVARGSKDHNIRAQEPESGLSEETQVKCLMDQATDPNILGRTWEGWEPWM
UniProt Q04759: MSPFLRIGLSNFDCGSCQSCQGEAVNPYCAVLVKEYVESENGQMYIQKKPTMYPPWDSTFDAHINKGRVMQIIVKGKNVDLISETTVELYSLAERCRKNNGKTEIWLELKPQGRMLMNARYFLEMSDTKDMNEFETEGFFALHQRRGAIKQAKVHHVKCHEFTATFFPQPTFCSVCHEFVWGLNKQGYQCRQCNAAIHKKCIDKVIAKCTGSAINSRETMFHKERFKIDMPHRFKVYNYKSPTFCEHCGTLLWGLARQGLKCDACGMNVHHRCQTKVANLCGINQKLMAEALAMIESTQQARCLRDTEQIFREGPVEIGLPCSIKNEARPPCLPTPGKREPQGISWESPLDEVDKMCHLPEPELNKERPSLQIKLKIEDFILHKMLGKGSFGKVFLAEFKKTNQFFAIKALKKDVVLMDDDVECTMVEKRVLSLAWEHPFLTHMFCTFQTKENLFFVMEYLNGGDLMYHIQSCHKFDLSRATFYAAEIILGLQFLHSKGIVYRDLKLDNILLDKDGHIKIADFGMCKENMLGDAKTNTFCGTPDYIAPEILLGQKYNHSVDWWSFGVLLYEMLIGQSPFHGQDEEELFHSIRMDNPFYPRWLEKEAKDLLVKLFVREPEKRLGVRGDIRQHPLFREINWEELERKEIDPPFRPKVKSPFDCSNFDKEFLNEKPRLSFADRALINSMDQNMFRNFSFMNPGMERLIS
UniProt O94906: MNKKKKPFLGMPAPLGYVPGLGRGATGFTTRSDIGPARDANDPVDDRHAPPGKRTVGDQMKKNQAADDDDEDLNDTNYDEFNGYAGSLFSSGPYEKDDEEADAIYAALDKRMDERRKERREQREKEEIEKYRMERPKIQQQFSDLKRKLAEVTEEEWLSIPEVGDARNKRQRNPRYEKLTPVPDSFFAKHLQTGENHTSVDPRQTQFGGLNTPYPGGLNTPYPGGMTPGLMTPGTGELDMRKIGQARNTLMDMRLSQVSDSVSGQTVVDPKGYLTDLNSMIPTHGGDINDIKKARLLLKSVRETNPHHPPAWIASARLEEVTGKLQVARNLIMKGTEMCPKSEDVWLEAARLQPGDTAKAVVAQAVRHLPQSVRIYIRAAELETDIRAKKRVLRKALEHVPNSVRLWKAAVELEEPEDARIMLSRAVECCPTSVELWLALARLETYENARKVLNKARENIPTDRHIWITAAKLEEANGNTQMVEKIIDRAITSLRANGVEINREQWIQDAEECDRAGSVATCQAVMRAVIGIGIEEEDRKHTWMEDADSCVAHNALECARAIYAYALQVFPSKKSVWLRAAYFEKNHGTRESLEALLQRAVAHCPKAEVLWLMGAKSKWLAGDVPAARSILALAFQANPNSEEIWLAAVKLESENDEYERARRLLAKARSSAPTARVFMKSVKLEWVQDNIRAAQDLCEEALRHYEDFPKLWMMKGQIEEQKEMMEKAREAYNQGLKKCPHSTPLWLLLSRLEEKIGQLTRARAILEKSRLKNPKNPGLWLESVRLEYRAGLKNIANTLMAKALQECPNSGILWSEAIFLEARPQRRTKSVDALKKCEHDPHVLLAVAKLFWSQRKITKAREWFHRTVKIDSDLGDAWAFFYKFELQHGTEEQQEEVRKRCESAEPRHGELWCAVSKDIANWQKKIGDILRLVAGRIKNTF
UniProt P41219, whole entry, looked up: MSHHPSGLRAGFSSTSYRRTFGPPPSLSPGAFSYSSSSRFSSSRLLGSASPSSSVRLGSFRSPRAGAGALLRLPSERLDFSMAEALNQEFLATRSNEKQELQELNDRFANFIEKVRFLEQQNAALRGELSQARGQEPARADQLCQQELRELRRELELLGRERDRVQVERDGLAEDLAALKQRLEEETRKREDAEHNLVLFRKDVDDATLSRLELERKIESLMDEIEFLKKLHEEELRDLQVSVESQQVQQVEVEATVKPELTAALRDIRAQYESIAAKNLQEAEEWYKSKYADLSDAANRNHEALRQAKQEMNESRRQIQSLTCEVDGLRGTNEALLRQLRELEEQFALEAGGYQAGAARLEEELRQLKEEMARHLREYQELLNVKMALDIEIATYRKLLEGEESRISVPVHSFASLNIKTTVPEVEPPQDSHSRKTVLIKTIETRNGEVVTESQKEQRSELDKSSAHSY

What was measured:
Assay in all cases: log2 fold change, soluble protein after heating vs DMSO (PISA); higher = thermal stabilisation; K562 cells, 10 uM, 30 min; active = over 0.2 and 3.5 SD of the protein, either way, in both replicates (recomputed)
[1] = compound: COC1=CC=C(C=C1)CN2C=CC3=C2C=C(C=C3)C(=O)NO
Summary of the method: (§1)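 Values are thermal stability changes relative to control samples and are taken from duplicates. They are stated as log2 fold changes. Before quantification by TMTpro 16plex LC-MS/MS with equalised channel sums, K562 cells at 2×10^6 cells/mL were treated with 10 μM compound for 30 min, heated in aliquots for 3 min across 48°C-58°C, pooled, extracted in PBS with 0.5% NP-40 at 4°C, and centrifuged at 21,000xg for 90 min to give the soluble supernatant.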

filanesib = compound: CON(C)C(=O)N1N=C(c2cc(F)ccc2F)S[C@@]1(CCCN)c1ccccc1 [filanesib]
Summary of the method: as §1

zotarolimus = compound: CO[C@H]1C[C@@H]2CC[C@@H](C)[C@@](O)(O2)C(=O)C(=O)N2CCCC[C@H]2C(=O)O[C@H]([C@H](C)C[C@@H]2CC[C@H](n3cnnn3)[C@H](OC)C2)CC(=O)[C@H](C)/C=C(\C)[C@@H](O)[C@@H](OC)C(=O)[C@H](C)C[C@H](C)/C=C/C=C/C=C/1C [zotarolimus]
Summary of the method: as §1

idasanutlin = compound: COc1cc(C(=O)O)ccc1NC(=O)[C@@H]1N[C@@H](CC(C)(C)C)[C@](C#N)(c2ccc(Cl)cc2F)[C@H]1c1cccc(Cl)c1F [idasanutlin]
Summary of the method: as §1

alisertib = compound: COc1cc(Nc2ncc3c(n2)-c2ccc(Cl)cc2C(c2c(F)cccc2OC)=NC3)ccc1C(=O)O [alisertib]
Summary of the method: as §1

[2] = compound: COc1cc2nc(-c3cc(F)ccc3O)nc(N[C@@H]3CNC[C@H]3C(C)(C)O)c2cc1OC
Summary of the method: as §1

gefitinib = compound: COc1cc2ncnc(Nc3ccc(F)c(Cl)c3)c2cc1OCCCN1CCOCC1 [gefitinib]
Summary of the method: as §1

[3] = compound: COc1cccc2cc(-c3nc([C@H]4CC[C@H](C(=O)O)CC4)n4ncnc(N)c34)[nH]c12
Summary of the method: as §1

lapatinib = compound: CS(=O)(=O)CCNCc1ccc(-c2ccc3ncnc(Nc4ccc(OCc5cccc(F)c5)c(Cl)c4)c3c2)o1 [lapatinib]
Summary of the method: as §1

pictilisib = compound: CS(=O)(=O)N1CCN(Cc2cc3nc(-c4cccc5[nH]ncc45)nc(N4CCOCC4)c3s2)CC1 [pictilisib]
Summary of the method: as §1

[4] = compound: CS(=O)(=O)c1ccc(-c2cnc(N)c(C(=O)Nc3ccccc3)n2)cc1
Summary of the method: as §1

crizotinib = compound: C[C@@H](Oc1cc(-c2cnn(C3CCNCC3)c2)cnc1N)c1c(Cl)ccc(F)c1Cl [crizotinib]
Summary of the method: as §1

[5] = compound: C[C@@H]1COCCN1C2=NC(=NC(=C2)C3(CC3)S(=O)(=O)C)C4=C5C=CNC5=CC=C4
Summary of the method: as §1

[6] = compound: C[C@H](C1=CC=C(C=C1)C(=O)NC2=C3C=CNC3=NC=C2)N
Summary of the method: as §1

gandotinib = compound: Cc1cc(Nc2cc(CN3CCOCC3)c3nc(C)c(Cc4ccc(Cl)cc4F)n3n2)n[nH]1 [gandotinib]
Summary of the method: as §1

[7] = compound: Cc1cc(SCc2sc(-c3ccc(C(F)(F)F)cc3)nc2C)ccc1OCC(=O)O
Summary of the method: as §1

doramapimod = compound: Cc1ccc(-n2nc(C(C)(C)C)cc2NC(=O)Nc2ccc(OCCN3CCOCC3)c3ccccc23)cc1 [doramapimod]
Summary of the method: as §1

ispinesib = compound: Cc1ccc(C(=O)N(CCCN)[C@@H](c2nc3cc(Cl)ccc3c(=O)n2Cc2ccccc2)C(C)C)cc1 [ispinesib]
Summary of the method: as §1

duvelisib = compound: C[C@H](Nc1ncnc2nc[nH]c12)c1cc2cccc(Cl)c2c(=O)n1-c1ccccc1 [duvelisib]
Summary of the method: as §1

tozasertib = compound: Cc1cc(Nc2cc(N3CCN(C)CC3)nc(Sc3ccc(NC(=O)C4CC4)cc3)n2)n[nH]1 [tozasertib]
Summary of the method: as §1

Measured: log2 fold change

PRKAA1 isoform 2 (UniProt Q13131)
active: gandotinib -0.235
inactive: [1] 0.029 | filanesib -0.043 | zotarolimus -0.007 | idasanutlin 0.013 | alisertib -0.047 | [2] -0.014 | gefitinib 0.004 | [3] 0.016 | lapatinib -0.008 | pictilisib -0.03 | [4] 0 | crizotinib -0.156 | [5] -0.007 | [6] -0.011 | [7] -0.036 | doramapimod -0.019 | ispinesib -0.003

PPP4R3B (UniProt Q5MIZ7)
inactive: [1] -0.01 | filanesib -0.004 | zotarolimus 0.014 | idasanutlin -0.039 | alisertib 0.048 | [2] 0 | gefitinib -0.034 | [3] -0.034 | lapatinib 0.047 | pictilisib 0.076 | [4] -0.003 | crizotinib 0.124 | [5] 0.064 | [6] -0.035 | gandotinib -0.075 | [7] 0.056 | doramapimod 0 | ispinesib 0.056

PPP1R9A isoform 3 (UniProt Q9ULJ8)
inactive: [1] -0.016 | filanesib 0.13 | alisertib -0.444 | gefitinib 0.068 | [3] -0.163 | [4] -0.33 | crizotinib 0.047 | [5] -0.017 | duvelisib -0.079 | [7] -0.002 | doramapimod 0.064 | ispinesib -0.017

PRG2 (UniProt P13727)
inactive: [1] -0.05 | zotarolimus -0.006 | alisertib -0.1 | [2] -0.083 | [3] -0.133 | lapatinib 0.005 | crizotinib 0.036 | [5] 0.212 | [6] -0.023 | duvelisib 0.086 | tozasertib 0.007 | [7] 0.016 | doramapimod 0.091

PRKDC (UniProt P78527)
inactive: [1] 0.009 | filanesib -0.049 | zotarolimus 0.029 | idasanutlin -0.073 | alisertib -0.056 | [2] 0.026 | [3] -0.064 | lapatinib -0.005 | pictilisib -0.015 | [4] 0.005 | crizotinib 0.018 | [5] 0.051 | [6] -0.074 | duvelisib 0.004 | gandotinib -0.063 | tozasertib -0.002 | [7] 0.021 | doramapimod -0.053 | ispinesib 0.059

PRKCQ (UniProt Q04759)
inactive: [1] -0.044 | filanesib -0.027 | zotarolimus 0.052 | idasanutlin -0.003 | alisertib -0.018 | [2] -0.206 | gefitinib 0.021 | [3] -0.008 | lapatinib 0.041 | pictilisib -0.053 | [4] 0.021 | crizotinib -0.238 | [5] 0.037 | gandotinib -0.165 | [7] 0.023 | doramapimod 0.038 | ispinesib -0.106
active: [6] -0.374

PRPF6 (UniProt O94906)
inactive: [1] -1.17 | filanesib -0.26 | idasanutlin -0.008 | pictilisib 0.127 | [4] 0.072 | crizotinib -0.093 | [5] -0.091 | duvelisib -0.111 | gandotinib 0.181 | tozasertib 0.18 | [7] -0.103 | doramapimod 0.488 | ispinesib -0.208

PRKCSH isoform 2 (UniProt P14314)
inactive: [1] 0.045 | zotarolimus 0.016 | idasanutlin 0.125 | alisertib -0.057 | gefitinib -0.037 | [3] 0.044 | pictilisib -0.24 | crizotinib -0.065 | [5] -0.339 | [6] -0.168 | duvelisib -0.111 | gandotinib 0.14 | tozasertib -0.067 | [7] -0.048 | doramapimod -0.046 | ispinesib 0.287

PRPH isoform 2 (UniProt P41219)
inactive: [1] -0.333 | filanesib 0.32 | zotarolimus 0.043 | idasanutlin 0.188 | alisertib -0.236 | [2] -0.285 | gefitinib 0.011 | [3] -0.325 | lapatinib 0.23 | pictilisib -0.102 | [4] 0.065 | crizotinib 0.212 | [6] 0.076 | duvelisib -0.244 | gandotinib 0.131 | tozasertib 0.34 | [7] 0.134 | doramapimod 0.113 | ispinesib -0.195

Quoted from above (2 entries):
PRKDC (UniProt P78527)
inactive: [1] 0.009 | filanesib -0.049 | zotarolimus 0.029 | idasanutlin -0.073 | alisertib -0.056 | [2] 0.026 | [3] -0.064 | lapatinib -0.005 | pictilisib -0.015 | [4] 0.005 | crizotinib 0.018 | [5] 0.051 | [6] -0.074 | duvelisib 0.004 | gandotinib -0.063 | tozasertib -0.002 | [7] 0.021 | doramapimod -0.053 | ispinesib 0.059

PRKCQ (UniProt Q04759)
inactive: [1] -0.044 | filanesib -0.027 | zotarolimus 0.052 | idasanutlin -0.003 | alisertib -0.018 | [2] -0.206 | gefitinib 0.021 | [3] -0.008 | lapatinib 0.041 | pictilisib -0.053 | [4] 0.021 | crizotinib -0.238 | [5] 0.037 | gandotinib -0.165 | [7] 0.023 | doramapimod 0.038 | ispinesib -0.106
active: [6] -0.374
